This is an account of results in the supplement of paper PMC10849652.

Amino acid sequences for entries named in this document (tags omitted). A change or cut given only in a name is not applied to a line headed by its entry.
UniProt Q32P41: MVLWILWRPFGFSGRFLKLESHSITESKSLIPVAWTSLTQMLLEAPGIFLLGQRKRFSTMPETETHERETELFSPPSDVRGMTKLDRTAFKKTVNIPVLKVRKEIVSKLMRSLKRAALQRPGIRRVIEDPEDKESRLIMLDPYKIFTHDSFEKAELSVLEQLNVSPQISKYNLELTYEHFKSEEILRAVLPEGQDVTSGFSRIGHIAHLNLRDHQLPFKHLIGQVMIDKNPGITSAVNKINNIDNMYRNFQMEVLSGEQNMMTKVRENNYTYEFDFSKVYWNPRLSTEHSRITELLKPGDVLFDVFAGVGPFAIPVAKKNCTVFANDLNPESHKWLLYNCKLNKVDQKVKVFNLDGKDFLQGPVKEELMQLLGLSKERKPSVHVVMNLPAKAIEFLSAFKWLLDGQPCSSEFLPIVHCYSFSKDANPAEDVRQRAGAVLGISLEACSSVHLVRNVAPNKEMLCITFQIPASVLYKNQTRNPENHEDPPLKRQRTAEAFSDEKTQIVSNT
UniProt Q9H3H1: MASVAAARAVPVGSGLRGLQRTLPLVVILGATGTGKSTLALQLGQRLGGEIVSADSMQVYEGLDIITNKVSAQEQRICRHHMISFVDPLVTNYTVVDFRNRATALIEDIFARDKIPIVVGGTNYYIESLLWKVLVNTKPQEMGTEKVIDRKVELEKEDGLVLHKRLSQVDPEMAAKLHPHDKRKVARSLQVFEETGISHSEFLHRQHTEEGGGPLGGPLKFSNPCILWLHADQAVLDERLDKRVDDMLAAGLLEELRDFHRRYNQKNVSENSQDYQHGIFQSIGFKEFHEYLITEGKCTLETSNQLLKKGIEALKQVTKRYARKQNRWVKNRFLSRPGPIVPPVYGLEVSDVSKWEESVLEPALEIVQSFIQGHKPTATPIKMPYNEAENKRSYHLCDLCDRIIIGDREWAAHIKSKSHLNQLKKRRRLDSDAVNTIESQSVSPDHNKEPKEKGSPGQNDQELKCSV
UniProt Q8N5M4: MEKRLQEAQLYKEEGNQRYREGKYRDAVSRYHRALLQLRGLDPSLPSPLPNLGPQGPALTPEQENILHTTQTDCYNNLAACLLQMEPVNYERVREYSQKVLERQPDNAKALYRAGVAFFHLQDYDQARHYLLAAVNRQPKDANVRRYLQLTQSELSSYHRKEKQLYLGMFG
UniProt Q86SZ2: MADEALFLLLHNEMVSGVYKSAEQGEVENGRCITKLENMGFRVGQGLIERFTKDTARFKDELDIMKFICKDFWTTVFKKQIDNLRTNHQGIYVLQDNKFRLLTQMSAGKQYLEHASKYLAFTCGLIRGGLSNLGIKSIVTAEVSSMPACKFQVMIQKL
UniProt Q6NXR4: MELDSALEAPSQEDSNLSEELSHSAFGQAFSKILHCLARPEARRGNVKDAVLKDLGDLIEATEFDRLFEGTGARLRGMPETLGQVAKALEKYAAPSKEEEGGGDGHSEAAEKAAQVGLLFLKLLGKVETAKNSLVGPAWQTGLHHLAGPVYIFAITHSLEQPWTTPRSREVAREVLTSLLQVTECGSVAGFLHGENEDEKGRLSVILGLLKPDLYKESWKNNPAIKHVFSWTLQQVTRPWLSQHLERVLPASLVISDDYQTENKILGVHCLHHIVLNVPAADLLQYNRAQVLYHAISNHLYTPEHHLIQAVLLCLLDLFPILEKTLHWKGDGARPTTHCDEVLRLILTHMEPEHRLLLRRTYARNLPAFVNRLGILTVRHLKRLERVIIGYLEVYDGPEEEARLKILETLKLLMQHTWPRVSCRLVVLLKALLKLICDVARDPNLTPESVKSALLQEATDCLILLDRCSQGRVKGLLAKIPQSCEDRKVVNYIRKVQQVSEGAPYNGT
UniProt Q9H2G4: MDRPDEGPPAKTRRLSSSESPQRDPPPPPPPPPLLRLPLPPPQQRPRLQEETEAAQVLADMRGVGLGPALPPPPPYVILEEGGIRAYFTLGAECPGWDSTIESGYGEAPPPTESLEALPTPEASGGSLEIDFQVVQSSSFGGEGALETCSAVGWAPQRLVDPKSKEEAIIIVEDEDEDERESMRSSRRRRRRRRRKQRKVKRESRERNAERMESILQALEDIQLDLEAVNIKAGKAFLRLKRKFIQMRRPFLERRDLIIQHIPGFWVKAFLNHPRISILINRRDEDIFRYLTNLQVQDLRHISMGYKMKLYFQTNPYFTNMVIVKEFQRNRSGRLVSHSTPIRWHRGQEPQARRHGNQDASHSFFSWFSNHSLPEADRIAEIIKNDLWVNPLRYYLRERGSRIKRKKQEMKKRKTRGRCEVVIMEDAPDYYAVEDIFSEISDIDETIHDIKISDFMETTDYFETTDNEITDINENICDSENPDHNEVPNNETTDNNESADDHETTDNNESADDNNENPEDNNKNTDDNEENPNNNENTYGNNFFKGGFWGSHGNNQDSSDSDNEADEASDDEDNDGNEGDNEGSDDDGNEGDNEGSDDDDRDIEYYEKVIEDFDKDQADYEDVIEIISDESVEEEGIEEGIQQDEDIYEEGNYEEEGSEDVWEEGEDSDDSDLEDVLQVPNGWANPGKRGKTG
UniProt Q8WVT3: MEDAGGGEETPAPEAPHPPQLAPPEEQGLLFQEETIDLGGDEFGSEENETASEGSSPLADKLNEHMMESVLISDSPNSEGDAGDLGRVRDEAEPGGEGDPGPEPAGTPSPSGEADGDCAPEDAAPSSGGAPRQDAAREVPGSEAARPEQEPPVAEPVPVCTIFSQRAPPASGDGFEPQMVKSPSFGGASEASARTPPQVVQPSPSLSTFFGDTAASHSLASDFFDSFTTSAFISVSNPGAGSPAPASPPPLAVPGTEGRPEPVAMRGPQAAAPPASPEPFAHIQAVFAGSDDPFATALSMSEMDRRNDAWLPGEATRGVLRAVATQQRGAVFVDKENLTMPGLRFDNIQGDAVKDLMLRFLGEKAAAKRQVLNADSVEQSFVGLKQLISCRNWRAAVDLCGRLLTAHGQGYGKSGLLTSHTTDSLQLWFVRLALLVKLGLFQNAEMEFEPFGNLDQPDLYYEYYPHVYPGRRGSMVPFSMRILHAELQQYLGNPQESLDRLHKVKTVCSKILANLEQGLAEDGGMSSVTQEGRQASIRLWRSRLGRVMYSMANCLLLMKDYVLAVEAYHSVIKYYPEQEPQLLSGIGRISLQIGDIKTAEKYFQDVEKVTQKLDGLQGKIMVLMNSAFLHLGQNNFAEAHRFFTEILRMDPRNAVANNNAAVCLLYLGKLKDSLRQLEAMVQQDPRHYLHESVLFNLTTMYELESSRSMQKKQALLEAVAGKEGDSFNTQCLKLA
UniProt Q99598: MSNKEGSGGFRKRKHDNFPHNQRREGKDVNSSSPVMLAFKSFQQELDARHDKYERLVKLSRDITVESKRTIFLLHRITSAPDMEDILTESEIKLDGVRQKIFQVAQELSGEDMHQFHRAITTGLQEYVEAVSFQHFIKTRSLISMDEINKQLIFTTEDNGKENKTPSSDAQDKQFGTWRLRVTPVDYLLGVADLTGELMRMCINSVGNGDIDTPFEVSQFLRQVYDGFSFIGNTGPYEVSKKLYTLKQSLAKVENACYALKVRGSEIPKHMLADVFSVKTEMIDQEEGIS
UniProt P19474, whole entry, looked up: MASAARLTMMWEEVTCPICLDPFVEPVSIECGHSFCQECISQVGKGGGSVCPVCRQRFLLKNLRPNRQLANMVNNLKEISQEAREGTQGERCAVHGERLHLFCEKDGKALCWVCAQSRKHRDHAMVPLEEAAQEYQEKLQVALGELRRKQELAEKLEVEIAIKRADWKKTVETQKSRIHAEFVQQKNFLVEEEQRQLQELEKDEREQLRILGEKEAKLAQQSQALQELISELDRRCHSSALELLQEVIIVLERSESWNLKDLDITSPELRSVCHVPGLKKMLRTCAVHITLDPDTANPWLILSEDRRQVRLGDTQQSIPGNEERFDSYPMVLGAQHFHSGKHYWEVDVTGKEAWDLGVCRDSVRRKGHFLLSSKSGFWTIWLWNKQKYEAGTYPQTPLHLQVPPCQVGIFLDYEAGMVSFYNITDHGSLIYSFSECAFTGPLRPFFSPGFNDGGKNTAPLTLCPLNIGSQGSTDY
UniProt A5PLN9: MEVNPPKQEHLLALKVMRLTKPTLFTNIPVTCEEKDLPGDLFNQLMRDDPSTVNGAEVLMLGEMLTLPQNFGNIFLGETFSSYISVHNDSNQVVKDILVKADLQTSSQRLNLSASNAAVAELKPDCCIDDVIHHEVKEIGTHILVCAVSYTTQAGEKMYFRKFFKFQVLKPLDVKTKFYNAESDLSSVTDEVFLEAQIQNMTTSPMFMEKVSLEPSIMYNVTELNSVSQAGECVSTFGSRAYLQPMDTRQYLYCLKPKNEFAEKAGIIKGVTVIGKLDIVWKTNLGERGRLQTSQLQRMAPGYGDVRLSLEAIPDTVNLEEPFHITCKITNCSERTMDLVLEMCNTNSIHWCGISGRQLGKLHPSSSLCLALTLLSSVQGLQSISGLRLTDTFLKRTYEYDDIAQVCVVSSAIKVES
UniProt Q96Q05, whole entry, looked up: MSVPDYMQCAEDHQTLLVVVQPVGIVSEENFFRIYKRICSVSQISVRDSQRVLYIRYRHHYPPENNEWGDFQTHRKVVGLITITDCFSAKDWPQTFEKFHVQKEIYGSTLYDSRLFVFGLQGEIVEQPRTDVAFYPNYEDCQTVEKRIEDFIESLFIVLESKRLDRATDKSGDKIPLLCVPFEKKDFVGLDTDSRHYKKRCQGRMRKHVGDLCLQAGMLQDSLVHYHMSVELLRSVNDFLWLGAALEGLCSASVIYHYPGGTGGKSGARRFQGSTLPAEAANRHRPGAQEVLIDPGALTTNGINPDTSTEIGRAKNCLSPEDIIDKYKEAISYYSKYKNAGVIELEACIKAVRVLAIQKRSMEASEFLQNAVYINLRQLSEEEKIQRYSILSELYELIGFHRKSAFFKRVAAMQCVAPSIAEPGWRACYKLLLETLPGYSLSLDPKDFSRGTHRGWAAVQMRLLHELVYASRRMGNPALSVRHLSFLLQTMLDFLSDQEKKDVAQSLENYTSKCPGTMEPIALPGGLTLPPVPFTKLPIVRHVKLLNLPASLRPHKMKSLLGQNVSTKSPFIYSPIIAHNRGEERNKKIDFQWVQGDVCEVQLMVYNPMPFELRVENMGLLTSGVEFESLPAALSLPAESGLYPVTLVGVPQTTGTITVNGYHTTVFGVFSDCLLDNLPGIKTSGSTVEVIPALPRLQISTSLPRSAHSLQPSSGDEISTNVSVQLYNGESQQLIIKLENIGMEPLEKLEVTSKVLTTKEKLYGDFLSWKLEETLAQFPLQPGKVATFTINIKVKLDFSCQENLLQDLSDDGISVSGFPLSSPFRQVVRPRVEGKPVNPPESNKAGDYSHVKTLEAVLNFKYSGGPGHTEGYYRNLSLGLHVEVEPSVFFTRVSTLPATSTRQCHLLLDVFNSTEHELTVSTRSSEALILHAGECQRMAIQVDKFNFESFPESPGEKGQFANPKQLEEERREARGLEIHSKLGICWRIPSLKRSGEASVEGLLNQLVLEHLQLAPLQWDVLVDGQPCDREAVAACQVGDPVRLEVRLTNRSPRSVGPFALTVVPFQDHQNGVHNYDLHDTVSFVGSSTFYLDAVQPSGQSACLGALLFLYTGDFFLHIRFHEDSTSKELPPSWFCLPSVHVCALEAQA
UniProt Q15642: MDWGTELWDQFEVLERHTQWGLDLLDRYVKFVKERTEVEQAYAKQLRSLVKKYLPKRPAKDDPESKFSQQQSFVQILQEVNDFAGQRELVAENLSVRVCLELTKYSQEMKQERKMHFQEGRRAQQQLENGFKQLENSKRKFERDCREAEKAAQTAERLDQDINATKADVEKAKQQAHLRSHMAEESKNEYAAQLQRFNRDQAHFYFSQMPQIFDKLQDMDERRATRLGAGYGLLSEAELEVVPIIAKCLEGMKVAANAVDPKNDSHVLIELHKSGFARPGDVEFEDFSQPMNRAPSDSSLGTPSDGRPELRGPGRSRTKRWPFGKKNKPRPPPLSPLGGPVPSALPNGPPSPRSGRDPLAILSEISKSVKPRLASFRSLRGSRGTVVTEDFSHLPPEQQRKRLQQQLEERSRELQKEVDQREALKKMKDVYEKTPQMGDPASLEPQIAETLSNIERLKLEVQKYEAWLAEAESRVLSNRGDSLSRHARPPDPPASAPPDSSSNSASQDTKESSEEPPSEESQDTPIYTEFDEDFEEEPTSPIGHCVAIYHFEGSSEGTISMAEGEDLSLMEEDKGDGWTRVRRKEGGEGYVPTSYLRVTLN
UniProt Q9NX07: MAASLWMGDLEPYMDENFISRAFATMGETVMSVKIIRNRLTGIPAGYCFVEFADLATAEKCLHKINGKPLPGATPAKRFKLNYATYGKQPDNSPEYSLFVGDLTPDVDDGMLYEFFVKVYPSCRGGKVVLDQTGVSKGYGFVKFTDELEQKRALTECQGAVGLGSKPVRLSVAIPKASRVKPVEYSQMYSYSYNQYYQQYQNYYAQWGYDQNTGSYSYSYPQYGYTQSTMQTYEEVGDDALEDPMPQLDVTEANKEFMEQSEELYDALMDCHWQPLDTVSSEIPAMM
UniProt O43715: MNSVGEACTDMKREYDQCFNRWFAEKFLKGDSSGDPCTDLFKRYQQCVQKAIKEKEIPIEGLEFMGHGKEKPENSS

The other results are listed elsewhere or left out.

Compound in the first test: Cc1nc(Nc2ncc(C(=O)Nc3c(C)cccc3Cl)s2)cc(N2CCN(CCO)CC2)n1 [dasatinib]
Description: log2 fold change, soluble protein after heating vs DMSO (PISA); higher = thermal stabilisation; K562 lysate, 10 uM; active = over 0.2 and 3.5 SD of the protein, either way, in both replicates (recomputed). The method in brief:
(§1)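 Quantification was by TMTpro 16plex LC-MS/MS with equalised channel sums, applied to the supernatant after 21,000xg for 90 min. Samples were crude K562 extract at 1 mg/mL protein in PBS pH 7.4 with 1 mM MgCl2, treated with 10 μM compound for 30 min, heated for 3 min across 48°C-58°C, pooled and brought to 0.5% NP-40 at 4°C. Values are log-two fold changes in thermal stability relative to solvent controls, from duplicates.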
As for TRMT5 (UniProt Q32P41), the log2 fold change was inactive: -0.041.
With TRAPPC10 (UniProt P48553), the log2 fold change was inactive: 0.011.
Take TRIT1 (UniProt Q9H3H1): the log2 fold change was inactive: -0.059.
As to TTC9C (UniProt Q8N5M4), the log2 fold change was inactive: 0.052.
As for TRIP12 isoform 2 (UniProt Q14669), the log2 fold change was inactive: 0.003.
The same measure, in the same setting: the value for TRAPPC6B (UniProt Q86SZ2) was inactive: 0.039; that for TTI2 (UniProt Q6NXR4) was inactive: -0.051.
Regarding TSPYL2 (UniProt Q9H2G4), the log2 fold change was inactive: -0.076.
Same read-out and setting: the value for TTC26 was inactive: -0.175.
Turning to TRAPPC12 (UniProt Q8WVT3), the log2 fold change was inactive: 0.024.
For TSNAX (UniProt Q99598), the log2 fold change was inactive: 0.008.
Still for that read-out and setting: with TRIM21 (UniProt P19474) the figure was inactive: -0.033.
Consider TRAPPC13 isoform 4 (UniProt A5PLN9), for which the log2 fold change is inactive: -0.093.
Take TRAPPC9 isoform 2 (UniProt Q96Q05): the log2 fold change was inactive: -0.051.
Still for that read-out and setting: with TRIP10 isoform 2 (UniProt Q15642) the figure was inactive: 0.147.
For the target TRNAU1AP (UniProt Q9NX07), the log2 fold change was inactive: 0.018.
On to TRMT112 (UniProt Q9UI30), for which the log2 fold change was inactive: -0.015.

Compound in the next test: Cc1ncc(-c2ccnc(Nc3ccc(S(C)(=O)=O)cc3)n2)n1C(C)C
The description is as above. The method in brief: as §1
As to TRIM32 (UniProt Q13049), the log2 fold change was inactive: -0.015.
On the same count and under the same terms, with TRIM28 (UniProt Q13263) the figure was inactive: -0.006; with TST (UniProt Q16762), inactive: -0.068.
On the same count and under the same terms, the value for TRMT1L (UniProt Q7Z2T5) was inactive: 0.095; that for TRUB1 (UniProt Q8WWH5) was inactive: 0.046; that for TTC37 (UniProt Q6PGP7) was inactive: 0.013.
Take TRPT1 isoform 4 (UniProt Q86TN4): the log2 fold change was inactive: 0.151.
Same read-out and setting: the value for TTC38 (UniProt Q5R3I4) was inactive: 0.059; that for TSPYL1 (UniProt Q9H0U9) was inactive: -0.007; that for TRAPPC2 isoform 3 (UniProt P0DI81) was inactive: -0.048.
Same read-out and setting: the value for TRAPPC11 (UniProt Q7Z392) was inactive: 0.017; that for TSR2 (UniProt Q969E8) was inactive: -0.028; that for TRMT1 (UniProt Q9NXH9) was inactive: 0.021.
On the same count and under the same terms, with TTLL12 (UniProt Q14166) the figure was inactive: -0.027.
TTC12 isoform 2 (UniProt Q9H892): the log2 fold change was inactive: 0.018.
Same read-out and setting: the value for TRIM58 (UniProt Q8NG06) was inactive: -0.063.
As to TTC4 (UniProt O95801), the log2 fold change is inactive: -0.018.
As for TRIM56 (UniProt Q9BRZ2), the log2 fold change is inactive: -0.006.
The same measure, in the same setting: with TRIP11 (UniProt Q15643) the figure was inactive: -0.03; with TRIM24 (UniProt O15164), inactive: 0.022.
Same read-out and setting: with TRIAP1 (UniProt O43715) the figure was inactive: 0.117; with TSC22D2 (UniProt O75157), inactive: -0.118.
Regarding TSEN15, A0A2U3TZM3, the log2 fold change was inactive: 0.32.
Regarding TRMT5 (UniProt Q32P41), the log2 fold change is inactive: 0.
Still for that read-out and setting: the value for TRAPPC10 (UniProt P48553) was inactive: -0.003; that for TRIT1 (UniProt Q9H3H1) was inactive: 0.005.
Same read-out and setting: the value for TTC9C (UniProt Q8N5M4) was inactive: 0.098; that for TRIP12 isoform 2 (UniProt Q14669) was inactive: 0.001; that for TRAPPC6B (UniProt Q86SZ2) was inactive: 0.005.
The same measure, in the same setting: with TTI2 (UniProt Q6NXR4) the figure was inactive: 0.044; with TSPYL2 (UniProt Q9H2G4), inactive: -0.009.
As to TTC26, the log2 fold change is inactive: 0.246.
The same measure, in the same setting: with TRAPPC12 (UniProt Q8WVT3) the figure was inactive: -0.05; with TSNAX (UniProt Q99598), inactive: -0.01.
For TRIM21 (UniProt P19474), the log2 fold change was inactive: 0.073.
As for TRAPPC13 isoform 4 (UniProt A5PLN9), the log2 fold change was inactive: -0.049.
Same read-out and setting: the value for TRAPPC9 isoform 2 (UniProt Q96Q05) was inactive: -0.011; that for TRIP10 isoform 2 (UniProt Q15642) was inactive: -0.008; that for TRNAU1AP (UniProt Q9NX07) was inactive: 0.046.
Same read-out and setting: with TRMT112 (UniProt Q9UI30) the figure was inactive: -0.033.

Compound in another test: Cn1cc(-c2ccc3c(c2)CCN3C(=O)Cc2cccc(C(F)(F)F)c2)c2c(N)ncnc21
The test is described as above. In short, it runs like this: as §1
TRIM32 (UniProt Q13049): the log2 fold change is inactive: 0.057.
As to TRIM28 (UniProt Q13263), the log2 fold change was inactive: -0.002.
Still for that read-out and setting: the value for TST (UniProt Q16762) was inactive: 0.021; that for TRMT1L (UniProt Q7Z2T5) was inactive: -0.002; that for TRUB1 (UniProt Q8WWH5) was inactive: 0.025.
On the same count and under the same terms, the value for TTC37 (UniProt Q6PGP7) was inactive: -0.085; that for TRPT1 isoform 4 (UniProt Q86TN4) was inactive: -0.057.
On the same count and under the same terms, with TTC38 (UniProt Q5R3I4) the figure was inactive: -0.003; with TSPYL1 (UniProt Q9H0U9), inactive: 0.077.
In the case of TRAPPC2 isoform 3 (UniProt P0DI81), the log2 fold change is inactive: 0.022.
Still for that read-out and setting: with TRAPPC11 (UniProt Q7Z392) the figure was inactive: 0.028; with TSR2 (UniProt Q969E8), inactive: -0.04; with TRMT1 (UniProt Q9NXH9), inactive: -0.009.
Consider TTLL12 (UniProt Q14166), for which the log2 fold change was inactive: -0.006.
Regarding TTC12 isoform 2 (UniProt Q9H892), the log2 fold change is inactive: 0.004.
On the same count and under the same terms, the value for TRIM58 (UniProt Q8NG06) was inactive: -0.016; that for TTC4 (UniProt O95801) was inactive: 0.012; that for TRIM56 (UniProt Q9BRZ2) was inactive: 0.017.
In the case of TRIP11 (UniProt Q15643), the log2 fold change was inactive: 0.001.
Same read-out and setting: with TRIM24 (UniProt O15164) the figure was inactive: 0.025; with TRIAP1 (UniProt O43715), inactive: -0.067.
The same measure, in the same setting: with TSC22D2 (UniProt O75157) the figure was inactive: -0.047; with TSEN15, A0A2U3TZM3, inactive: 0.003; with TRMT5 (UniProt Q32P41), inactive: 0.001.
Turning to TRAPPC10 (UniProt P48553), the log2 fold change is inactive: 0.02.
With TRIT1 (UniProt Q9H3H1), the log2 fold change was inactive: 0.052.
As to TTC9C (UniProt Q8N5M4), the log2 fold change is inactive: -0.048.
As for TRIP12 isoform 2 (UniProt Q14669), the log2 fold change is inactive: 0.039.
Still for that read-out and setting: with TRAPPC6B (UniProt Q86SZ2) the figure was inactive: 0.005; with TTI2 (UniProt Q6NXR4), inactive: 0.01; with TSPYL2 (UniProt Q9H2G4), inactive: -0.038.
With TTC26, the log2 fold change is inactive: 0.075.
For the target TRAPPC12 (UniProt Q8WVT3), the log2 fold change was inactive: 0.038.
With TSNAX (UniProt Q99598), the log2 fold change was inactive: 0.023.
On the same count and under the same terms, with TRIM21 (UniProt P19474) the figure was inactive: 0.044; with TRAPPC13 isoform 4 (UniProt A5PLN9), inactive: 0.014; with TRAPPC9 isoform 2 (UniProt Q96Q05), inactive: 0.068.
Same read-out and setting: with TRIP10 isoform 2 (UniProt Q15642) the figure was inactive: 0.143.
On to TRNAU1AP (UniProt Q9NX07), for which the log2 fold change was inactive: 0.015.
On the same count and under the same terms, with TRMT112 (UniProt Q9UI30) the figure was inactive: -0.032.
